Test results published in patent publication US20210139453A1, “(HETERO)ARYL SULFONAMIDE COMPOUND AND FORMULATION FOR CONTROLLING HARMFUL ORGANISMS” (Nippon Soda Co., Ltd., priority 2018, published 2021).
Some results were stated once for a whole list of compounds, not compound by compound.

Experiments:
Heterodera glycines = assay: Efficacy test against Heterodera glycines (in vitro test); conditions: 1.0 μL of 10,000 pm DMSO solution per 200 μL well; second-instar larvae (L2); 3 days at 25° C.
Caenorhabditis elegans = assay: Efficacy test against Caenorhabditis elegans (in vitro test); conditions: 1.0 μL of 10,000 pm DMSO solution per 200 μL well; mixed instars; 2 days at 25° C.
Meloidogyne incognita [1] = assay: Efficacy test against Meloidogyne incognita (in vitro test); conditions: 1.0 μL of 10,000 pm DMSO solution per 200 μL well; second-instar larvae (L2); 2 days at 15° C.
Meloidogyne incognita [2] = assay: Efficacy test against Meloidogyne incognita (club root formation suppression test on cucumber); assay type: in vivo; conditions: 125 ppm, 1 ml irrigated on 7 g medium with cucumber seeds; 200 eggs; 25° C.; after 14 days
Mythimna separata = assay: Efficacy test against Mythimna separata (artificial feed mixed with emulsion); assay type: in vivo; conditions: second-instar larvae; 1 μl of 5% emulsion (I) in 0.8 g artificial feed; 25° C.; 5th day
Description: Five parts of the (hetero)aryl sulfonamide compound of the present invention, 93.6 parts of dimethylformamide and 1.4 parts of a polyoxyethylene alkyl aryl ether were mixed together and dissolved to obtain an emulsion (I) containing 5% of the active ingredient.
For the control, 93.6 parts of dimethylformamide and 1.4 parts of a polyoxyethylene alkyl aryl ether were mixed together and dissolved to obtain an emulsion (II).
Insect mortality rate(%)=(number of dead insects/number of test insects)×100 Nematode mortality rate(%)=(number of dead nematodes/number of test nematodes)×100
First, 0.8 g of a commercially-available artificial feed (Insecta LFS, manufactured by Nosan Corporation) and 1 μl of the emulsion (I) were mixed well, and thereby, a test feed was obtained. Subsequently, 0.2 g of the test feed was placed in each of the treatment areas of a plastic test container (volume: 1.4 ml). Subsequently, two second-instar larvae of Mythimna separata were inoculated into each treatment area, and a plastic lid was placed on the test container to prevent the larvae from escaping. The closed container was placed in a thermostatic chamber at 25° C. On the 5th day therefrom, the insect mortality rate and the amount of feed consumed were checked. The test was repeated.
In addition, for a control area, the insect mortality rate and the amount of feed consumed were checked in the same manner as that described in Test Example 1, with the exception of replacing the emulsion (I) with the emulsion (II).

Row | Structure (SMILES) | nematode mortality rate against Heterodera glycines (Heterodera glycines) [%] | nematode mortality rate against Caenorhabditis elegans (Caenorhabditis elegans) [%] | nematode mortality rate against Meloidogyne incognita (Meloidogyne incognita [1]) [%] | club root formation suppression ratio against Meloidogyne incognita (Meloidogyne incognita [2]) [%] | amount of feed consumed, relative to the amount of feed consumed in the control area (Mythimna separata) [%]
1 | O=S(=O)(Nc1cc(C(F)(F)F)cnc1-n1ccc(C(F)(F)F)n1)C(F)(F)F [Compound 1-1, 1,1,1-trifluoro-N-[5-(trifluoromethyl)-2-[3-(trifluoromethyl)pyrazol-1-yl]-3-pyridyl]methanesulfonamide] | ≥ 80 |  |  |  | 
2 | COC(=O)c1cc(Cl)cc2nc(-c3ccc(C(F)(F)F)cc3NS(=O)(=O)C(F)(F)F)[nH]c12 [Compound 2-4] |  | ≥ 80 |  |  | 
3 | COC(=O)c1cc(F)c(F)c2nc(-c3ccc(C(F)(F)F)cc3NS(=O)(=O)C(F)(F)F)[nH]c12 [Compound 2-7] |  | ≥ 80 |  |  | 
4 | O=S(=O)(Nc1cc(F)c(F)cc1-c1nc2cc(F)c(F)cc2[nH]1)C(F)(F)F [Compound 2-9] |  | ≥ 80 | ≥ 80 | ≥ 80 | ≤ 10
5 | O=S(=O)(Nc1cc(C(F)(F)F)ccc1-c1nc2cc(Cl)ccc2o1)C(F)(F)F [Compound 2-10] |  | ≥ 80 |  |  | 
6 | O=S(=O)(CC(F)(F)F)Nc1cc(C(F)(F)F)ccc1-c1nc2cc(F)c(F)cc2[nH]1 [Compound 2-11] |  |  | ≥ 80 |  | 
7 | O=S(=O)(Nc1cc(C(F)(F)F)ccc1-n1cnc(-c2ccc(Br)cc2)n1)C(F)(F)F [Compound 2-15] |  | ≥ 80 | ≥ 80 | ≥ 80 | ≤ 10
8 | O=S(=O)(Nc1cc(C(F)(F)F)ccc1-n1cc(-c2ccc(Cl)cc2)cn1)C(F)(F)F [Compound 2-16] |  | ≥ 80 | ≥ 80 | ≥ 80 | ≤ 10
9 | O=S(=O)(Nc1cc(C(F)(F)F)ccc1-n1cc(Br)cn1)C(F)(F)F [Compound 2-19] | ≥ 80 |  | ≥ 80 | ≥ 80 | 
10 | O=S(=O)(Nc1cc(C(F)(F)F)ccc1-n1ccc(-c2ccc(F)c(F)c2)n1)C(F)(F)F [Compound 2-20] | ≥ 80 |  | ≥ 80 | ≥ 80 | 
11 | O=S(=O)(Nc1cc(C(F)(F)F)ccc1-n1ccc(C(F)(F)F)n1)C(F)(F)F [Compound 2-21] | ≥ 80 |  | ≥ 80 | ≥ 80 | 
12 | O=S(=O)(Nc1cc(C(F)(F)F)ccc1-n1ccc(-c2ccc(C(F)(F)F)cc2)n1)C(F)(F)F [Compound 2-22] |  |  | ≥ 80 |  | ≤ 10
13 | O=S(=O)(Nc1cc(C(F)(F)F)ccc1-c1noc(C(F)(F)F)n1)C(F)(F)F [Compound 2-29] |  | ≥ 80 |  |  | 
14 | O=S(=O)(Nc1cc(C(F)(F)F)ccc1-c1nc(C(F)(F)F)c[nH]1)C(F)(F)F [Compound 2-34] | ≥ 80 |  | ≥ 80 | ≥ 80 | 
15 | O=S(=O)(Nc1cc(C(F)(F)F)ccc1-c1cccc(C(F)(F)F)n1)C(F)(F)F [Compound 2-35] |  |  | ≥ 80 | ≥ 80 | 
16 | O=S(=O)(Nc1cc(C(F)(F)F)ccc1-c1ccc(C(F)(F)F)cn1)C(F)(F)F [Compound 2-36] |  |  | ≥ 80 |  | ≤ 10
17 | O=S(=O)(Nc1cc(C(F)(F)F)cnc1-n1ccc(-c2ccc(Cl)cc2)n1)C(F)(F)F [Compound 3-3] |  |  | ≥ 80 | ≥ 80 | 
18 | O=S(=O)(Nc1cc(C(F)(F)F)cnc1-n1ccc(C(F)(F)F)n1)C(F)(F)F [Compound 3-5] |  |  |  | ≥ 80 | 
19 | O=S(=O)(Nc1cc(Cl)cnc1-n1ccc(C(F)(F)F)n1)C(F)(F)F [Compound 3-6] |  |  | ≥ 80 | ≥ 80 | 
20 | O=S(=O)(Nc1ccc(Cl)nc1-n1ccc(C(F)(F)F)n1)C(F)(F)F [Compound 3-12] |  |  | ≥ 80 | ≥ 80 | 

Row | Structure (SMILES) | nematode mortality rate against Heterodera glycines (Heterodera glycines) [%] | nematode mortality rate against Caenorhabditis elegans (Caenorhabditis elegans) [%] | nematode mortality rate against Meloidogyne incognita (Meloidogyne incognita [1]) [%] | club root formation suppression ratio against Meloidogyne incognita (Meloidogyne incognita [2]) [%] | amount of feed consumed, relative to the amount of feed consumed in the control area (Mythimna separata) [%]
21 | O=S(=O)(Nc1cc(I)cnc1-n1ccc(C(F)(F)F)n1)C(F)(F)F [Compound 3-13] |  |  | ≥ 80 | ≥ 80 | 
22 | O=S(=O)(Nc1ccc(C(F)(F)F)nc1-n1ccc(C(F)(F)F)n1)C(F)(F)F [Compound 3-20] |  |  | ≥ 80 | ≥ 80 | 
23 | O=S(=O)(Nc1cc(C(F)(F)F)cnc1-n1ccc(Cl)n1)C(F)(F)F [Compound 3-22] |  |  | ≥ 80 | ≥ 80 | 
24 | O=S(=O)(Nc1cc(C(F)(F)F)cnc1-n1ccc(Br)n1)C(F)(F)F [Compound 3-24] |  |  | ≥ 80 | ≥ 80 | 
25 | O=S(=O)(Nc1cc(C(F)(F)F)cnc1-n1ccc(I)n1)C(F)(F)F [Compound 3-25] |  |  | ≥ 80 | ≥ 80 | 
26 | O=S(=O)(Nc1cc(C(F)(F)F)cnc1-n1cc(F)cn1)C(F)(F)F [Compound 3-27] |  |  | ≥ 80 | ≥ 80 | 
27 | O=S(=O)(Nc1cc(C(F)(F)F)cnc1-n1cc(Cl)cn1)C(F)(F)F [Compound 3-28] |  |  | ≥ 80 | ≥ 80 | 
28 | O=S(=O)(Nc1cc(C(F)(F)F)cnc1-n1cc(Br)cn1)C(F)(F)F [Compound 3-29] |  |  | ≥ 80 | ≥ 80 | 
29 | O=S(=O)(Nc1cc(C(F)(F)F)cnc1-n1cc(C(F)(F)F)cn1)C(F)(F)F [Compound 3-30] |  |  | ≥ 80 | ≥ 80 | 
30 | N#Cc1cnn(-c2ncc(C(F)(F)F)cc2NS(=O)(=O)C(F)(F)F)c1 [Compound 3-31] |  |  | ≥ 80 |  | 
31 | O=S(=O)(Nc1cc(C(F)(F)F)cnc1-n1cnc(C(F)(F)F)c1)C(F)(F)F [Compound 3-33] |  |  | ≥ 80 |  | 
32 | NC(=O)c1ccc(NS(=O)(=O)C(F)(F)F)c(-n2ccc(C(F)(F)F)n2)n1 [Compound 3-34] |  |  | ≥ 80 |  | 
33 | O=S(=O)(Nc1ccc(-c2ccc(C(F)(F)F)cc2Cl)nc1-n1ccc(C(F)(F)F)n1)C(F)(F)F [Compound 3-35] |  |  | ≥ 80 | ≥ 80 | 
34 | CC(F)(F)CS(=O)(=O)Nc1cc(C(F)(F)F)cnc1-n1ccc(C(F)(F)F)n1 [Compound 3-37] |  |  | ≥ 80 | ≥ 80 | 
35 | O=S(=O)(Nc1cc(C(F)(F)F)cnc1-n1cc(Br)c(C(F)(F)F)n1)C(F)(F)F [Compound 3-38] | ≥ 80 |  | ≥ 80 | ≥ 80 | 
36 | Cc1cc(C(F)(F)F)nn1-c1ncc(C(F)(F)F)cc1NS(=O)(=O)C(F)(F)F [Compound 3-39] |  |  | ≥ 80 |  | 
37 | CC(C)(C)c1cc(C(F)(F)F)nn1-c1ncc(C(F)(F)F)cc1NS(=O)(=O)C(F)(F)F [Compound 3-43] |  |  | ≥ 80 |  | 
38 | Cc1c(Br)c(C(F)(F)F)nn1-c1ncc(C(F)(F)F)cc1NS(=O)(=O)C(F)(F)F [Compound 3-46] |  |  | ≥ 80 | ≥ 80 | ≤ 10
39 | O=S(=O)(Nc1cc(C(F)(F)F)cnc1-c1cccc(C(F)(F)F)n1)C(F)(F)F [Compound 3-47] |  |  | ≥ 80 |  | ≤ 10
40 | O=S(=O)(Nc1cc(C(F)(F)F)cnc1-c1ccn(CC(F)(F)F)n1)C(F)(F)F [Compound 3-48] |  |  | ≥ 80 | ≥ 80 | 
